Assay results reported in PubChem BioAssay AID743255 (National Center for Advancing Translational Sciences (NCATS), 2014).
Screen size: about 390,000 compounds; about 910 (0.23%) were called active. This list was built around the results that the source calls inconclusive (neither active nor inactive); the mix of calls is not that of the screen. Calls come from the whole dose curve; as a rule, active = well fitted inhibition curve with a large enough effect; inconclusive = small, poorly fitted or top-dose-only effect; inactive = no such curve, though single readings can be large or run the other way. Where the call is inconclusive, the potency comes from a doubtful curve fit.

The chains behind the UniProt entries cited, without tags or fusion partners. Where a name states a change or a piece, a line headed by the entry shows the natural chain unless it says otherwise.
UniProt O94782: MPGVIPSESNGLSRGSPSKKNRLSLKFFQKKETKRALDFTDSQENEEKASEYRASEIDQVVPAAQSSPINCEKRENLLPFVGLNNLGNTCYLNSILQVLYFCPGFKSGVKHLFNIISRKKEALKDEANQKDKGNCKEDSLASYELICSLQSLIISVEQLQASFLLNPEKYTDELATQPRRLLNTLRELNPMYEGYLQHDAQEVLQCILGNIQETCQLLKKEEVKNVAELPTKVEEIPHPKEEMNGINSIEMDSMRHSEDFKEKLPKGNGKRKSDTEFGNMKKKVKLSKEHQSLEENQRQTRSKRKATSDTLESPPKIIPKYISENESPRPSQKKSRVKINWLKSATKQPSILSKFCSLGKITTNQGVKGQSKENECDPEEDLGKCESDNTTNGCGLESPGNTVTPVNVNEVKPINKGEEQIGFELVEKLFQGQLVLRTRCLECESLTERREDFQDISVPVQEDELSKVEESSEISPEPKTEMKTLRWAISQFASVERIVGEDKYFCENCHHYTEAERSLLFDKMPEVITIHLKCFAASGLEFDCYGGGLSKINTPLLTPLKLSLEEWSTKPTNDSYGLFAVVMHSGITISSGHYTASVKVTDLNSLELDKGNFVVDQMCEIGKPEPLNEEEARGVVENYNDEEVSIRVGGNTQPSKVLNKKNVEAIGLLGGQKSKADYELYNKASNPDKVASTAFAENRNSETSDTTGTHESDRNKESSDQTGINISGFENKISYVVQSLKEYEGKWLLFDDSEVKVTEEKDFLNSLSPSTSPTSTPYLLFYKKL

Molecular target: Ubiquitin carboxyl-terminal hydrolase 1 (Homo sapiens) (UniProt O94782)
Test: Inhibitors of USP1/UAF1: Primary Screen; note: nearly all actives have a fitted effect of over 60% in size
Settings: recombinant USP1/UAF1, Ub-Rhodamine cleavage fluorescence; activity change, negative = inhibition: at 57.1 µM (top of the series)
Procedure, shortened: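 1 nM enzyme complex + cpd, 15 min RT; start with Ub-Rho 150nM final; kinetic fluorescence ex 480/em 540, 6 reads q60 s. Buffer 50mM HEPES pH 7.8, 0.5mM EDTA, 0.1 mg/ml BSA, 1mM TCEP, 0.01% Tween-20.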
% is set by controls: 0 for no effect and ±100 for the full control effect; potency is the fitted concentration of half-maximal effect.

Potency, inconclusive:
COc1ccc(C(=O)CNc2ccc3ccccc3c2)cc1 31.6 µM [inhibitor, partial curve], CCCC(=O)N(Cc1cc2cccc(C)c2[nH]c1=O)c1ccccc1OC 35.5 µM [inhibitor, partial curve, poor fit], CCN(CCCNC(=O)c1cc2c(=O)n(CC)c3ccccc3c2s1)c1cccc(C)c1 0.282 µM [inhibitor, full curve, poor fit], COc1ccccc1NC(=S)NNC(=S)Nc1ccc(OC(F)F)cc1 39.8 µM [inhibitor, single point], C#CCNC(=O)C1=C[C@H](c2csc3ccccc23)C[C@H](OCCCCO)O1 3.98 µM [inhibitor, full curve, poor fit], COc1cc(O)c(C(CCN2CCN(c3ccccc3)CC2)c2ccc3c(c2)OCO3)c(OC)c1 (stereo unspecified) 15.8 µM [inhibitor, partial curve, poor fit], Cc1cc(C)c(CN2CCN(C(=O)Cn3cnc4c(NCc5ccccc5)ncnc43)CC2)c(C)c1 39.8 µM [inhibitor, partial curve, poor fit], Cc1ccc(C)c(N2CCN(C(=O)c3cc4ccc5cccnc5c4[nH]3)CC2)c1 50.1 µM [inhibitor, single point], COc1cccc(NC(=O)c2ccccc2SC)c1 44.7 µM [inhibitor, partial curve, poor fit], O=C(Nc1ccccc1Cl)N1CCN(c2ccc3nnc(-c4ccccc4)n3n2)CC1 4.47 µM [inhibitor, full curve, poor fit], Cc1csc(NC(=O)CSc2sc3c(O)cc(=O)[nH]c3c2C#N)n1 8.91 µM [inhibitor, partial curve, poor fit], CCOC(=O)c1sc(N)c(C#N)c1COC(=O)CNC(=O)c1ccccc1 39.8 µM [inhibitor, single point], O=[N+]([O-])c1ccc(/C=N/Nc2nc(N3CCCCCC3)nc(N3CCCCCC3)n2)o1 14.1 µM [inhibitor, partial curve], COc1ccc(CCNC(=O)c2cc(-c3ccc(C)cc3)nc3n[nH]c(-c4ccccc4)c23)cc1OC 0.891 µM [inhibitor, full curve, poor fit], CCc1ccccc1NC(=O)COC(=O)C1C2CC3OC(=O)C1C3C2 (stereo unspecified) 50.1 µM [inhibitor, partial curve, poor fit], O=c1c2ccccc2nc(SCCN2CCCCC2)n1CCc1ccccc1 20 µM [inhibitor, partial curve, poor fit], COc1cccc(CNC(=O)C2CCCN(S(C)(=O)=O)C2)c1 (stereo unspecified) 25.1 µM [inhibitor, single point], CS(=O)(=O)Nc1nc2n(n1)C(c1ccccc1)C=C(c1ccc(Br)cc1)N2 (stereo unspecified) 35.5 µM [inhibitor, partial curve], c1ccc(C2OC3c4cccc5cccc(c45)C3N2c2ccccc2)cc1 (stereo unspecified) 39.8 µM [inhibitor, partial curve, poor fit], COC(=O)c1cccc(NC(=O)C2CCN(S(=O)(=O)Cc3ccccc3)CC2)c1C 0.398 µM [inhibitor, full curve, poor fit], CCC(C)(C)n1nnnc1C(c1ccc2ncccc2c1)N1CCN(Cc2ccc3c(c2)OCO3)CC1 (stereo unspecified) 0.282 µM [inhibitor, full curve, poor fit], COc1ccc2nc(N3CCOCC3)cc(C)c2c1 1 µM [inhibitor, full curve, poor fit], C[C@@]12CCC3[C@@](CCC4[C@@]3(C)CCC[C@@]4(C)C(=O)O)(CC1=O)C2 (stereo partly specified) 50.1 µM [inhibitor, partial curve, poor fit], COc1ccccc1N1CCN(C(=O)C2CCN(S(=O)(=O)c3cnc[nH]3)CC2)CC1 0.631 µM [inhibitor, full curve, poor fit], COc1ccc(CNC(=O)CN(c2ccc(C)cc2)S(=O)(=O)c2c(C)n[nH]c2C)cc1 2.51 µM [inhibitor, full curve, poor fit], Cc1ccc2nsnc2c1NC(=O)c1cncc(Br)c1 50.1 µM [inhibitor, single point], O=C(NCc1ccc(F)cc1)N1[C@H]2CC[C@@H]1C=C(c1ccc(F)cc1OCc1ccccc1)C2 44.7 µM [inhibitor, partial curve, poor fit], COc1ccc(OC)c(Nc2nc(-c3ccc(C)cc3)nc3ccccc23)c1 11.2 µM [inhibitor, full curve, poor fit], CC(C)Oc1ccccc1OCCCOc1cccc2cccnc12 50.1 µM [inhibitor, partial curve, poor fit], CCN(CC)S(=O)(=O)c1ccc(O)c(C(=O)OCC(=O)Nc2cc(C)c(C)cc2[N+](=O)[O-])c1 3.98 µM [inhibitor, partial curve], CCOC(=O)c1c(NC(=O)c2cc(CC)on2)sc(C)c1C 0.708 µM [inhibitor, full curve], CCc1cc2cccc(C)c2nc1SCC(=O)NNC(=O)c1ccco1 5.01 µM [inhibitor, partial curve], COc1ccccc1NC(=O)COc1ccc2ccccc2c1 44.7 µM [inhibitor, partial curve, poor fit], Cc1ccc(S(=O)(=O)NC(=O)N(C)C2CCCCC2)cc1 28.2 µM [inhibitor, single point], CN(C)S(=O)(=O)c1cccc(C(=O)Nc2ccccc2N2CCCCC2)c1 5.01 µM [inhibitor, full curve, poor fit], Cc1ccc(-c2ccc(C(=O)Nc3cccc(F)c3)o2)c2ccccc12 70.8 µM [inhibitor, partial curve, poor fit], Cc1ccc(NC(=O)N2CCC(N3CCN(Cc4ccccc4)C(=O)C3=O)CC2)cc1Cl 0.251 µM [inhibitor, full curve, poor fit], COC(=O)c1cccc2c1C(=O)c1cc([N+](=O)[O-])ccc1-2 5.62 µM [inhibitor, partial curve], O=C1c2cccc3c([N+](=O)[O-])ccc(c23)C(=O)N1Cc1cccnc1 44.7 µM [inhibitor, partial curve, poor fit], CC(=O)N(Cc1ccc(F)cc1)C1=C(NCc2ccccc2)C(=O)c2ccccc2C1=O 17.8 µM [inhibitor, partial curve], CC1CCCN(S(=O)(=O)c2cc3c(cc2Cl)NC(=O)CO3)C1 (stereo unspecified) 50.1 µM [inhibitor, single point], Cc1cc(NC(=O)CSc2nc3c(c(-c4cccnc4)c2C#N)CCC3)no1 28.2 µM [inhibitor, single point], CN(C(=O)c1ccc(NC(=O)Cc2ccc(NC(=O)C3CCCN(C(=O)C4CCCCC4)C3)cc2)cc1)C1CCCC1 (stereo unspecified) 0.126 µM [inhibitor, full curve, poor fit]

Potency, active:
Cc1ccnc(N/C=C(\C#N)c2nc(-c3cccc(Br)c3)cs2)c1 22.4 µM

Potency, inactive:
COc1cc(/C=C2\SC(=O)N(CC(=O)Nc3cccc(C)c3)C2=O)cc([N+](=O)[O-])c1O, S=c1sscc1-c1ccccc1, CCc1ccccc1NC(=O)C1(S(=O)(=O)c2ccc(Cl)cc2)CC1, COc1ccc(NC(=O)c2cccnc2Nc2ccccc2)cc1, Cn1cc(CN2CCC(n3nccc3NC(=O)c3ccccc3Cl)CC2)c2ccccc21, O=c1[nH]c(-c2ccc(F)cc2)nc2c1sc(=S)n2-c1ccccc1, Fc1ccc(-c2nn(-c3ccccc3)cc2CNCc2ccccc2)cc1, COC(=O)C1=C(C(=O)OC)SC2(S1)C(C(=O)OC)=C(C(=O)OC)SC1=C2c2cccc(C)c2NC1(C)C, CC(NC(=O)c1ccc(Cl)cc1)c1nnc(SCC(=O)NC2=NCCS2)n1C (stereo unspecified), Clc1cccc(C2Nc3cccc4cccc(c34)N2)c1Cl, Cn1cccc1/C=C1\SC(=S)N(NC(=O)c2ccc(F)cc2)C1=O, CC1=NN(c2ccccc2)C(=O)/C1=C/c1cccc(C)c1, O=C(N/N=C/c1ccccc1F)NC12CC3CC(CC(C3)C1)C2, Cc1cccc(NC(=O)NCCn2c(=O)oc3ccc(C)cc32)c1, Cn1ncc2c(Nc3ccc(O)cc3)nc(Cl)nc21, Brc1ccccc1-n1ncc2c1ncn1nc(Cc3ccccc3)nc21, Cc1ccc(-c2[nH]ncc2/C=N/n2c(COc3ccccc3)nc3ccccc3c2=O)cc1, O=C1c2cccnc2-c2ncccc21, O=C(CN1CCOCC1)NNC(=O)c1ccc(Cl)cc1, c1ccc(Cc2nnc(Sc3ccccc3)c3ccccc23)cc1, CCOC(=O)N1CCN(C(=O)CSCc2ccccc2)CC1

Activity change, negative = inhibition, inconclusive:
Cc1cccc(-c2nc(C)cc(=O)[nH]2)c1 -27.2% [inhibitor]
